Measured data: PubChem BioAssay AID504791 (Drosophila RNAi Screening Center, 2011)

Screen: 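Factors in Argonaute-based small RNA production and activity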 (primary screen)
Cells: Drosophila S2-derived reporter cells
Reagent: long dsRNA against Drosophila genes, about 150-250 ng dsRNA per well (siRNA assay); about 80-120 ng (miRNA assay)
Time to read-out: about 5 days (siRNA assay); about 4 days (miRNA assay)
Conditions: copper sulfate induction of reporters: 25 µM (siRNA assay); 200 mM stated (miRNA assay), 1-2 days before reading
Measurement: 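Per-well ratio of Renilla over firefly light, expressed relative to that plate's average ratio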
Call rule: 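a well was a first-pass pick when its plate-scaled ratio rose above 1.5 (siRNA assay) or 1.6 (miRNA assay), or dropped below 0.6; a gene counted only if two separate dsRNAs agreed on retest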
The deposit covers about 23,000 reagents; below is a random part of those with a known target gene and a result. In the full data, 199 (0.86%) are marked active. 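Plate-scaled ratios behind the calls are not deposited; printed light signals are raw; many rows marked increased or decreased are still called inactive.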 Names joined by + are all predicted targets of the reagent. Not stated in the record: the direction of the score.

predicted target	DRSC id	stable siRNA reporter change	miRNA reporter change	stable assay Renilla, run 1 (luminescence)	stable assay firefly, run 1 (luminescence)	activity call
CG6424	DRSC05936			8222	2.56e5	inactive
Or92a	DRSC16771			8149	4.45e5	inactive
CG10209	DRSC05980			8242	3.78e5	inactive
Gld2	DRSC15863			5327	2.01e5	inactive
Gld2	DRSC23037			4447	3.08e5	inactive
CG33557	DRSC17854			4859	3.80e5	inactive
ND1 (retired record)	DRSC21273			4902	3.65e5	inactive
mim	DRSC05013			5279	2.10e5	inactive
mim	DRSC23045			4164	2.90e5	inactive
CG12519	DRSC10311			6815	3.64e5	inactive
CG12519	DRSC21549			8980	5.05e5	inactive
CG32182	DRSC09508			5635	4.37e5	inactive
Vha100-3	DRSC05760			5714	4.02e5	inactive
CG4408	DRSC15574			9639	3.58e5	inactive
CG18788	DRSC02697			7832	5.16e5	inactive
THG	DRSC01896			6556	3.06e5	inactive
Tsp42Eh	DRSC06190			6278	4.03e5	inactive
CG8839	DRSC07285			7798	3.50e5	inactive
Ddrgk1	DRSC15897			9585	4.02e5	inactive
CG15365	DRSC18038	reporter ratio raised past the hit cutoff		4787	1.70e5	inactive
CG15365	DRSC23021		reporter ratio raised past the hit cutoff	3340	2.83e5	inactive
CG15890	DRSC19737			4939	3.83e5	inactive
CG10587	DRSC11627			7412	3.83e5	inactive
CG5886	DRSC15908			7690	5.75e5	inactive
CG13252	DRSC11700			8737	3.68e5	inactive
Rrp6	DRSC16223	reporter ratio raised past the hit cutoff		8338	2.72e5	active
CG3598	DRSC18471			6875	3.84e5	inactive
CG4271	DRSC00649			8779	6.02e5	inactive
Cht4	DRSC04603			7766	5.07e5	inactive
Gr10a	DRSC18897			6000	6.11e5	inactive
Gr10a	DRSC22792			4519	3.59e5	inactive
CG14024	DRSC00868			5730	4.53e5	inactive
CG14024	DRSC02354			15053	4.52e5	inactive
CG7694	DRSC16288			6144	3.24e5	inactive
CG13494	DRSC04139			6986	4.59e5	inactive
Neu2	DRSC11819			7604	4.68e5	inactive
CG8910	DRSC07414			6472	3.59e5	inactive
CG13069	DRSC09952			6776	4.08e5	inactive
CG3939	DRSC18498			5780	4.48e5	inactive
eIF5	DRSC20165	reporter ratio lowered past the hit cutoff		4987	5.15e5	active
CG32181	DRSC22635			3104	3.01e5	inactive
CG32269 + CG32270	DRSC08195			6062	3.56e5	inactive
Ptpmeg2	DRSC18277			4471	3.37e5	inactive
Ptpmeg2	DRSC18278			5942	3.56e5	inactive
Ptpmeg2	DRSC23303			5155	3.94e5	inactive
Ubr1	DRSC20148			9869	4.12e5	inactive
bma	DRSC09896			5360	4.29e5	inactive
bma	DRSC10164			5614	3.55e5	inactive
Sec61gamma	DRSC19570			5611	4.15e5	inactive
comr	DRSC04138			6319	3.38e5	inactive
RNaseZ	DRSC06845			7882	4.71e5	inactive
CG13558	DRSC04196			6118	3.31e5	inactive
Saf6	DRSC00633			14823	4.04e5	inactive
DIP-alpha	DRSC17891			4924	4.93e5	inactive
DIP-alpha	DRSC17892			4464	2.16e5	inactive
DIP-alpha	DRSC23275			3856	2.82e5	inactive
CG31821	DRSC22162			9333	6.19e5	inactive
CG13096	DRSC02198			7503	3.67e5	inactive
CG12848	DRSC04128			6455	4.88e5	inactive
CG32198	DRSC09553			5175	3.19e5	inactive
foi	DRSC10719		reporter ratio raised past the hit cutoff	6896	3.61e5	inactive
foi	DRSC29596		reporter ratio raised past the hit cutoff			inactive
CG17186	DRSC15180			8329	5.00e5	inactive
Cht5	DRSC16470			3372	3.80e5	inactive
CG32052	DRSC10966			5499	2.52e5	inactive
nerfin-2	DRSC14547			6027	3.16e5	inactive
CG11883	DRSC06094			7214	3.72e5	inactive
inaF-B + inaF-D + inaF-C + 1 more	DRSC20342			5843	5.07e5	inactive
CG9294	DRSC04537			6547	3.23e5	inactive
CG32212 + hpRNA:CR33940	DRSC09618			5504	5.29e5	inactive
Nplp1	DRSC04370			17418	1.09e6	inactive
stmA	DRSC05120			4091	4.30e5	inactive
stmA	DRSC07593			5803	4.25e5	inactive
stmA	DRSC22179			10306	5.55e5	inactive
CG34200	DRSC04804			5187	4.90e5	inactive
Hr83	DRSC12521			6507	3.59e5	inactive
CG17996 + Tsen2	DRSC02650			7040	5.32e5	inactive
CG33514	DRSC08471			4622	3.94e5	inactive
CG33514	DRSC08472			5358	4.55e5	inactive
CG33514	DRSC21670			9076	4.68e5	inactive
Lon	DRSC11049			9719	4.76e5	inactive
mRpS9	DRSC12645			4351	3.85e5	inactive
mRpS9	DRSC15456			4407	3.44e5	inactive
CG15599	DRSC19668			5118	3.78e5	inactive
egr	DRSC06233			5912	3.50e5	inactive
l(3)62Be (retired record)	DRSC08231			12007	4.99e5	inactive
dsx-c73A	DRSC09435			4603	3.23e5	inactive
dsx-c73A	DRSC09914			7950	4.73e5	inactive
dsx-c73A	DRSC10429			7744	3.55e5	inactive
Samtor	DRSC04390			44170	1.61e6	inactive
sqd	DRSC15160			6950	4.23e5	inactive
sqd	DRSC17066			3323	4.35e5	inactive
CG13315	DRSC09986			6435	5.62e5	inactive
CG7328	DRSC10812			7799	4.08e5	inactive
Polr3I	DRSC19922			7451	5.04e5	inactive
CG12112	DRSC17809			6814	5.41e5	inactive
CG30037	DRSC07305			5316	2.63e5	inactive
CG31698	DRSC22226			9641	6.06e5	inactive
CG31698	DRSC28563		reporter ratio lowered past the hit cutoff			inactive
CG3919	DRSC10389			14802	3.99e5	inactive
mu2	DRSC08726			8131	2.63e5	inactive
mu2	DRSC21534			10050	4.66e5	inactive
KaiR1D	DRSC15516			6958	2.65e5	inactive
Pp1-87B	DRSC16794	reporter ratio raised past the hit cutoff		16250	4.37e5	inactive
Pp1-87B	DRSC23299	reporter ratio lowered past the hit cutoff		2528	3.05e5	inactive
CG3225	DRSC00578			11386	1.83e5	inactive
